Experimental data reported in US20260232750A1, “COMPOSITION AND METHOD FOR INHIBITING ADVANCED GLYCATION END PRODUCTS” (ACCESS BUSINESS GROUP INTERNATIONAL LLC, priority 2022, published 2026).
Some of these results come from one statement about several compounds together.

Tests used:
DPPH· scavenging assay = assay type: biochemical
[1] = FRAP total antioxidant capacity assay; assay type: biochemical
Description: Fast colourimetric methods were slightly modified for the in vitro assessment of DPPH· scavenging, ABTS·+ decolourisation capacity, and total antioxidant capacity of FRAP. The stock solutions of derivatisation reagents were diluted as follows before measurement: DPPH was diluted with absolute ethanol until the absorbance was 0.8±0.05 at λ=517 nm. ABTS working solution was prepared with phosphate buffer (0.2 M, pH 7.4) to display absorbance of 0.8±0.05 at λ=729 nm, based on a previous study. The FRAP solution was prepared according to the instructions of the FRAP kit. Absorbances were measured using an automatic microplate reader (Molecular Group Ltd., USA), and all analyses were performed using 96-well plates. All measurements were performed in triplicate, and Trolox was used as a positive control.
FeSO4 solutions (0.15, 0.3, 0.6, 0.9, 1.2, and 1.5 mM) were used for the calibration curve. The FRAP value represents the corresponding concentration of FeSO4 solutions (mM FeSO4). The regression equation from the standard curve was used to calculate the equivalent concentration 1 (EC1) of each sample. EC1 is defined as the concentration of the test sample with an absorbance equivalent to that of 1.0 mmol/L of FeSO4 solution, determined by its calibration curve.

Q: With O=c1cc(-c2ccc(O)cc2)oc2c([C@H]3OC[C@H](O)[C@H](O)[C@H]3O)c(O)c([C@@H]3O[C@H](CO)[C@@H](O)[C@H](O)[C@H]3O)c(O)c12 [Compound 21, Neoschaftoside] as the compound, how does the IC50 (DPPH· scavenging assay) read?
A: Its IC50 is over 5 mM.

Q: What about the “EC1 of FRAP” value [1] of the same compound?
A: The value was “higher than 5,000 μM”.
